# Measurements reported in PubChem BioAssay (EPA / NIEHS).
# Chains of the proteins cited; added tags and fusions are not shown. Lines headed by an entry give the natural chain unless they say otherwise; changes in a name come on top.
# UniProt P37238, whole entry, looked up: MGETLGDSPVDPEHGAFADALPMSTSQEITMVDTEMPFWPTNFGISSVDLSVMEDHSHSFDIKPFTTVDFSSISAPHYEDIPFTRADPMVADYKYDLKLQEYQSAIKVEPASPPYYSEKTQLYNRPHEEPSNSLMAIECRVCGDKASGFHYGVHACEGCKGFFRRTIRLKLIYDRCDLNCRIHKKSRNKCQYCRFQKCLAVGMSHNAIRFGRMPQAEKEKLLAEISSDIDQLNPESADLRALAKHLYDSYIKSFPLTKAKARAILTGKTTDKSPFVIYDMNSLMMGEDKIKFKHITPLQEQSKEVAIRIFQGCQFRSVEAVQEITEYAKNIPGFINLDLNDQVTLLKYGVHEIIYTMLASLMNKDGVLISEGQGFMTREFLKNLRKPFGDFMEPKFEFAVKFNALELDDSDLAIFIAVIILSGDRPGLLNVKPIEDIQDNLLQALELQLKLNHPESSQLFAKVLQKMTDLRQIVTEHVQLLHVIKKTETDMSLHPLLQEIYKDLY
# UniProt P15204: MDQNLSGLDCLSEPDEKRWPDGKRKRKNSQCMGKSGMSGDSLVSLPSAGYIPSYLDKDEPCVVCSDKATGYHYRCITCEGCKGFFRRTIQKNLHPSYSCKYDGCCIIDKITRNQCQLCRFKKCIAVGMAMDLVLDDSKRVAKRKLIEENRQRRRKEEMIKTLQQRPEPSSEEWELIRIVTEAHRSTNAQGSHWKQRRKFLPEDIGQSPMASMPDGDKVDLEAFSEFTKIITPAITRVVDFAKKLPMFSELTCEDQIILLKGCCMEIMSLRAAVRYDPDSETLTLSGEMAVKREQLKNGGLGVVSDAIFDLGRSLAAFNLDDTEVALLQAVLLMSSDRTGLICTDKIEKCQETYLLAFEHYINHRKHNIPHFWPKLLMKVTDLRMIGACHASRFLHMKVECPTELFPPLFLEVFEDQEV
# UniProt P10275: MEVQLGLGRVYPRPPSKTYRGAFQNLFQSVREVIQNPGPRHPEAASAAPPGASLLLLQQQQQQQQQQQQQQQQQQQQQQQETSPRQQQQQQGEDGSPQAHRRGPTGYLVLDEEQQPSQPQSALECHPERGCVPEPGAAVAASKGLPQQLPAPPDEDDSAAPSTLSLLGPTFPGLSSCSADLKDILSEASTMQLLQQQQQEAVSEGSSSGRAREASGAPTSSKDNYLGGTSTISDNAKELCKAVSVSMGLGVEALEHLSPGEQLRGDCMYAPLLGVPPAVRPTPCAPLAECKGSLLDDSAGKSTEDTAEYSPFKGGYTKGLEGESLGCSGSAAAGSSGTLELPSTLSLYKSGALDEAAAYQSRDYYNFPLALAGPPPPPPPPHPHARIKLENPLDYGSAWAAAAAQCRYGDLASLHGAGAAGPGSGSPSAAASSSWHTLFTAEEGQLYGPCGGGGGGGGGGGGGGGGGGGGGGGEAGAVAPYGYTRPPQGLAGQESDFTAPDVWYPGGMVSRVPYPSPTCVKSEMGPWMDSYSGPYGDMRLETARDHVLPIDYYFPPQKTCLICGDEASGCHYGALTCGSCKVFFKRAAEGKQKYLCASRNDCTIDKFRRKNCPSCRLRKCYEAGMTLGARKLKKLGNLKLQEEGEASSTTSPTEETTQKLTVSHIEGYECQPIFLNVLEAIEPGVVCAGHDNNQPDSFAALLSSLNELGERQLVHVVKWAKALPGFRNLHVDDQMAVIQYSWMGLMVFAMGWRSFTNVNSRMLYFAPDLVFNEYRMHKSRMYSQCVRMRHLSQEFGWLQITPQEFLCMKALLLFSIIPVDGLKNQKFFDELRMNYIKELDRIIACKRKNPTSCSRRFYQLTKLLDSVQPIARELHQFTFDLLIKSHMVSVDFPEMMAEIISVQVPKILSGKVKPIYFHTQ
# This list was built around the results that the source calls inconclusive (neither active nor inactive); the mix of calls is not that of the screen. For some assays here: Potencies of inconclusive entries are doubtful fits and often do not repeat. Activity calls are given as the source filed them. Rule for the calls: active = hit-call score of the fitted dose curve at least 0.9, where 1 is the maximum; inconclusive = response in the unintended direction; inactive = score below 0.9.
# How the values were obtained:
# [1] = ATG_M_06_XSP1: Attagene TRANS-FACTORIAL Multi-Species (XSP1) HepG2 Assay for M06 Transcription Factor (Internal Marker) (AID 2283790)
# Outline: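 Transfected HepG2 multi-reporter system treated 24 h in the presence of 3 nM 6-alpha-fluorotestosterone. The M06 internal marker transcript was quantified by RT-PCR with capillary electrophoresis as a background control, and gain of signal was scored versus DMSO.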
# [2] = target: mouse Peroxisome Proliferator-activated Receptor gamma (PPARg), Pparg (gene 19016) (UniProt P37238); experiment: ATG_mPPARg_XSP1: Attagene TRANS-FACTORIAL Multi-Species (XSP1) HepG2 Assay for mouse Peroxisome Proliferator-activated Receptor gamma (PPARg) (AID 2283802)
# Outline: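 HepG2 cells transiently transfected with GAL4-UAS reporter units driven by mouse PPARg–GAL4 chimera; 3 nM 6-alpha-fluorotestosterone present. After 24 h dosing, reporter mRNA quantified by RT-PCR, fluorescent labelling and capillary electrophoresis; gain of signal versus DMSO.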
# [3] = tested on: turtle Thyroid Hormone Receptor, alpha (TRa), gene 101949057; experiment: ATG_trTRa_XSP1: Attagene TRANS-FACTORIAL Multi-Species (XSP1) HepG2 Assay for turtle Thyroid Hormone Receptor, alpha (TRa) (AID 2283806)
# Outline: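 HepG2 cells transiently transfected with GAL4-UAS reporter units and chimeric receptor-Gal4 constructs, with 3 nM 6-alpha-fluorotestosterone present. Reporter mRNA was quantified 24 h after dosing by RT-PCR, 6-FAM labelling and capillary electrophoresis; gain of signal versus DMSO.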
# [4] = target: frog Thyroid hormone Receptor alpha (TRa), thra-a (gene 397942) (UniProt P15204); experiment: ATG_frTRa_XSP1: Attagene TRANS-FACTORIAL Multi-Species (XSP1) HepG2 Assay for frog Thyroid hormone Receptor alpha (TRa) (AID 2283804)
# Outline: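 HepG2 cells transiently transfected with frog TRa-GAL4 chimeric reporter units, dosed 24 hr with 3 nM 6-alpha-fluorotestosterone present; reporter mRNA quantified by RT-PCR, fluorescent labelling and capillary electrophoresis, gain of signal versus DMSO.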
# AR (gene 367) = AR (gene 367) (UniProt P10275); experiment: ACEA_AR_agonist_80hr: ACEA Biosciences xCELLigence Real-Time Cell Analysis on Androgen Receptor Agonism for Proliferation (AID 2283783);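 note: hits increase impedance growth signal above DMSO baseline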
# Outline: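 22Rv1 human prostate cancer cells were seeded after preconditioning in assay medium and monitored overnight, then dosed in an eight-point 1:4 dilution series from 100 uM (≤0.5% DMSO). Impedance-based growth was read at 80 h, gain-of-signal versus DMSO.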
# [5] = ACEA_ER_AUC_viability: ACEA Biosciences xCELLigence Real-Time Cell Analysis on Estrogen Receptor Agonism for Viability (AID 2283782);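 note: continuous compound exposure with impedance area under curve over 80 h; hit means loss of impedance signal meaning reduced cell growth or viability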
# Outline: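 T-47D human breast cells in phenol red-free RPMI1640 with 10% charcoal-stripped FBS were dosed with an 8-point 1:4 dilution series from 100 uM top final concentration, in duplicate. Impedance-based growth was followed for 80 h; AUC analysed versus DMSO.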
# [6] = STM_H9_NormalizedViability: Cytotoxicity Assessment at 120 hours in the Stemina devTOX quickPredict H9 human embryonic stem cell (hESC)-based Assay (AID 2283784)
# Outline: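 Pluripotent H9 hESCs were exposed, with chemical and media replaced every 24 h. Viability was read by CellTiter-Fluor fluorescence, background-corrected and normalized to the 0.1% DMSO neutral control per plate. Loss of signal was fitted.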
smiles,measurement,setting,value
C[C@]12CC[C@H]3C(=CCc4cc(O)ccc43)[C@@H]1CCC2=O,AC50,[2],inconclusive: 0.258 µM
same,AC50,[3],inconclusive: 0.245 µM
O=C(c1ccc(O)cc1O)c1ccc(O)cc1O,outcome,[4],inactive
same,AC50,[3],inconclusive: 10 µM
CCCCc1ccc2ccccc2c1S(=O)(=O)O,AC50,AR (gene 367),inconclusive: 0.191 µM
COc1cccc(-c2ccc(/C=C\CN3CCCCCC3)cc2Cl)c1,AC50,[5],active: 56.3 µM
same,AC50,[6],active: 1.1 µM
